PubChem BioAssay AID2685 (National Center for Advancing Translational Sciences (NCATS), 2010)
Screen size: about 320,000 compounds; about 2,100 (0.66%) were called active. The shares of active, inactive and inconclusive entries below differ from those in the screen. Calls follow the shape of the dose curve; as a rule, active = well fitted inhibition curve with a large enough effect in the signal ratio, with a control signal flat (not every such curve was filed as active); inconclusive = small, poorly fitted or top-dose-only effect, or effect the other way, or a change in a side signal; inactive = flat fitted curve, though single readings scatter; the % refers to the signal ratio. Where the call is inconclusive, the potency comes from a doubtful curve fit.

Assay: qHTS Assay for Lipid Storage Modulators in Drosophila S3 Cells
Conditions: BODIPY lipid droplet fluorescence, 18-24 h, cells fed with added oleic acid; lipid storage change, negative = inhibition: at 46.1 µM (top of the series) unless noted
How it was run: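 Drosophila S3 cells got compounds at several concentrations plus oleic acid (400 uM solution). Laser-scanning cytometry with 488 nm excitation read lipid droplets at 500-530 nm and cells at 575-640 nm. Percent activity was relative to 20 uM Triacsin C.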
% is scaled to controls: 0 for no effect and ±100 for the full control effect; potency is read from the fitted curve at half-maximal effect.

With `COc1ccc(-c2sc3ccccc3c2C#CCCO)cc1` as the compound, how does the lipid storage change, negative = inhibition read?
The lipid storage change, negative = inhibition was inconclusive: 10.7%.

For `CC(Sc1n[nH]c(N)n1)C(=O)NC1CCCCC1C` (stereo unspecified), which lipid storage change, negative = inhibition is on record?
The lipid storage change, negative = inhibition was inconclusive: 22.8%.

Which Potency does the source give for `COc1ccc(NS(=O)(=O)c2ccc(NS(=O)(=O)c3cccc(C(=O)O)c3)cc2)cc1` here?
The Potency was inconclusive: 0.116 µM [falling, single point].

With `COc1ccc(C(=O)Nc2cc3c(cc2OC)CCCC3)cc1Br` as the compound, how does the “lipid storage change, negative = inhibition” value read?
The value was inactive: -6.54%.

For `CCN(C(=O)CSc1cc(C)c2ccccc2n1)c1c(N)n(Cc2ccccc2)c(=O)[nH]c1=O`, which Potency is on record?
The Potency was inconclusive: 14.6 µM [falling, partial curve].

Which lipid storage change, negative = inhibition does the source give for `O=C(CNC(=O)C1CCCCC1)OCc1cc(=O)oc2ccc3ccccc3c12` here?
The lipid storage change, negative = inhibition was inconclusive: 1.67%.

With `CC(C)Nc1nc(NC(C)C)nc(OCCOC(=O)c2ccccc2)n1` as the compound, how does the lipid storage change, negative = inhibition read?
The lipid storage change, negative = inhibition was inconclusive: -10.1%.

With `CN(C)C(C)(C)C#CC(O)(c1ccccc1)c1ccccc1` as the compound, how does the lipid storage change, negative = inhibition read?
Its lipid storage change, negative = inhibition is inconclusive: 36.5%.

With `C#CCOCCOCCOCCNc1nc(N2CCN(C(=O)Cn3cc(CC(C)O)nn3)CC2)nc(N2CCN(C(=O)Cn3cc(CC(C)O)nn3)CC2)n1` (stereo unspecified) as the compound, how does the lipid storage change, negative = inhibition read?
The lipid storage change, negative = inhibition was inconclusive: -17.8%.

Which Potency does the source give for `CC(=O)N1CCN(c2ccc(NC(=S)NC(=O)c3ccccc3)cc2)CC1` here?
Its Potency is inconclusive: 29.1 µM [rising, single point].

Which lipid storage change, negative = inhibition does the source give for `COc1ccc(NC(=O)CN(C)C(=O)Cc2ccc(-c3ccccc3)cc2)cc1` here?
The lipid storage change, negative = inhibition was inconclusive: -16.3%.

For `Cc1ccc(C(=O)N(CC(C)C)c2c(N)n(Cc3ccccc3)c(=O)[nH]c2=O)o1`, which lipid storage change, negative = inhibition is on record?
The lipid storage change, negative = inhibition was “inconclusive”.

For `O=C(NCC1CC1)c1onc(CSc2nc3ccccc3[nH]2)c1C(=O)NCC1CC1`, which Potency is on record?
Its Potency is active: 11.6 µM.

For `CCOc1ccc(NC(=O)C2CCCN(S(=O)(=O)c3ccc4[nH]c(=O)ccc4c3)C2)cc1` (stereo unspecified), which Potency is on record?
The Potency was active: 20.6 µM.

Which Potency does the source give for `CN(CC(=O)Nc1ccc(N2CCOCC2)cc1)CC(=O)Nc1ccc(Cl)cc1[N+](=O)[O-]` here?
The Potency was inconclusive: 0.184 µM [activator, full curve, poor fit].

For `COc1cc(NC(=S)Nc2cccnc2)cc(OC)c1`, which lipid storage change, negative = inhibition is on record?
Its lipid storage change, negative = inhibition is inconclusive: 13.2%.

Which lipid storage change, negative = inhibition does the source give for `Nc1c(-c2cccc([N+](=O)[O-])c2)nc2ccccn12` here?
Its lipid storage change, negative = inhibition is inconclusive: 20.9%.

Which Potency does the source give for `Cc1cc(C)cc(-n2ncc3c2CCCC3NC(=O)c2csnn2)c1` (stereo unspecified) here?
The Potency was inconclusive: 0.1 µM [cytotoxic, full curve].

For `O=C(Cc1noc2ccccc12)NNC(=S)Nc1ccc(Cl)cc1`, which lipid storage change, negative = inhibition is on record?
The lipid storage change, negative = inhibition was inconclusive: 16%.

For `CN(Cc1ccccc1)S(=O)(=O)c1ccc(NC(=S)NC(=O)C(C)(C)C)cc1`, which Potency is on record?
The Potency was inconclusive: 10.3 µM [rising, partial curve].

For `N#CC1=C(N)C(C#N)(C#N)[C@H](c2cccnc2)[C@H]2CN(C(=O)OCc3ccccc3)CC=C12`, which lipid storage change, negative = inhibition is on record?
The lipid storage change, negative = inhibition was inconclusive: -33%.
